Assay results from EP1381627B1, “POLYPEPTIDES DERIVED FROM AMYLOID PRECURSOR PEPTIDE (APP) AND THEIR USES” (THE OPEN UNIVERSITY, priority 2001, dated 2010).
At least one peptide structure holds a part that was inferred or is arguable (an end, a ring closure or a residue).

Tested on: chicks
Experiment: One-trial passive avoidance task, strong training, β-amyloid 12-28 induced amnesia
Assay type: in vivo, chick
Settings: injected into the brain 30 minutes prior to training; tested 30 minutes subsequently; Figure 2

`CC(C)C[C@H](NC(=O)[C@H](CCCCN)NC(=O)[C@H](CCC(N)=O)NC(=O)[C@H](Cc1c[nH]cn1)NC(=O)[C@H](Cc1c[nH]cn1)NC(=O)[C@@H](N)C(C)C)C(=O)N[C@H](C(=O)N[C@@H](Cc1ccccc1)C(=O)N[C@@H](Cc1ccccc1)C(=O)N[C@@H](C)C(=O)N[C@@H](CCC(=O)O)C(=O)N[C@@H](CC(=O)O)C(=O)N[C@H](C(=O)NCC(=O)N[C@@H](CO)C(=O)N[C@@H](CC(N)=O)C(=O)N[C@@H](CCCCN)C(=O)O)C(C)C)C(C)C` [β-amyloid 12-28, Val-His-His-Gln-Lys-Leu-Val-Phe-Phe-Ala-Glu-Asp-Val-Gly-Ser-Asn-Lys] was tested, and the “effect on memory formation (percent avoidance)” value was “results in amnesia”.
